Patent US10640765B2 (priority 2016, dated 2020)
At least one structure is not confirmed: it was looked up by name or label, or the drawing left a doubt.

System: vaccinia virus (v7.5/tk viral DNA) in BSC-1 cells
Type: cell-based

`CO[C@H]1/C=C/O[C@@]2(C)Oc3c(C)c(O)c4c(O)c(c(/C=N/N5CCN(C)CC5)c(O)c4c3C2=O)NC(=O)/C(C)=C\C=C\[C@H](C)[C@H](O)[C@@H](C)[C@@H](O)[C@@H](C)[C@H](OC(C)=O)[C@@H]1C` [Rifampicin, rifampicin] was tested, and the “yield relative to when rifampicin is not added” value was “at least live times greater”.
